The test is described as follows: qHTS Assay to Find Inhibitors of Chronic Active B-Cell Receptor Signaling. The following applies: ABC-DLBCL IkBa-CBG/CBR reporter, luminescence ratio (green luciferase fused to IkBa over red control in TMD8 lymphoma cells), 4 h. In a few lines: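 Doxycycline induced both beetle luciferases in TMD8 lymphoma cells; IKK-driven degradation limits the IkappaBalpha-fused green signal, while red luminescence normalises for cell number and nonspecific effects. Compounds tested up to 46 uM, 4 hrs.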

The mark [1] stands for this setting: measured here: CBR red luminescence, cell number.
Where [2] appears, read: measured here: IkBa-CBG green luminescence.

Some of the results follow. The main result of the screen is listed elsewhere. These columns were measured beside it and carry no call. Most of these compounds were active or inconclusive in the main read-out, so they are no random draw. Words in brackets tell the shape of the fitted curve; partial curves, single points and poor fits give uncertain potencies.

For orientation: AC50 means the concentration at which the activity in the assay is half-maximal.

Take `O=C(/C=C/Nc1ccccc1F)c1cccs1`: the AC50 under setting [1] was 18.4 µM [falling, partial curve].

Regarding `Cc1cc(=O)n2[nH]c(NCc3ccccc3F)nc2n1`, the AC50 under setting [1] was 31.6 µM [falling, partial curve, poor fit].

`Cc1ccc(C)c2[nH]c(=O)c(CN(CC3CCCO3)C(=O)NC3CCCCC3)cc12` (stereo not given): under setting [1], the AC50 is 0.92 µM [rising, full curve, poor fit].

In the case of `COc1ccc(OC)c(NC(=O)c2cnc3n(c2=O)CCS3)c1`, the AC50 under setting [1] is 0.92 µM [rising, full curve, poor fit].

For the compound `Cc1nc(-c2ccccc2)sc1C(=O)Nc1ccccc1F`, the AC50 under setting [1] was 1.26 µM [rising, full curve, poor fit].

In the case of `COc1ccc(-c2nnc(OCc3nc4ccccc4n3C)c3ccccc23)cc1`, the concentration at half-maximal activity (AC50) under setting [1] was 29.1 µM [falling, single point].

On to `COc1cccc(N=Cc2nc(-c3ccccc3)oc2OC(C)=O)c1`, for which the AC50 under setting [1] is 35.5 µM [falling, single point].

`COc1ccc(NC(=O)Nc2ccc(N(C)C)cc2)cc1`: the AC50 under setting [1] is 5.62 µM [rising, partial curve, poor fit].

Take `O=C(Nc1ccc2nc3n(c(=O)c2c1)CCCC3)c1ccccc1[N+](=O)[O-]`: under setting [2], the AC50 was 23.1 µM [rising, partial curve, poor fit].

Turning to `CN(C)/C=C/C(=O)c1ccn(S(=O)(=O)c2ccccc2)c1`, the concentration at half-maximal activity (AC50) under setting [1] was 10 µM [rising, partial curve, poor fit].

Take `O=C(CCc1nc2cccnc2n1Cc1ccccc1)NCCc1ccc(Cl)cc1`: the AC50 under setting [1] was 15.8 µM [falling, single point].

Regarding `COc1cc2nc(SCc3ccc(C(F)(F)F)cc3)n(Cc3cccs3)c(=N)c2cc1OC`, the AC50 under setting [1] is 29.1 µM [rising, partial curve, poor fit].

Consider `CC(=O)Nc1ccc(Cl)cc1C(=O)O`, for which, under setting [1], the AC50 is 16.4 µM [falling, single point].

In the case of `COc1ccc(/C=N/Nc2nc(C(=O)O)cs2)cc1`, under setting [1], the AC50 is 15.8 µM [falling, single point].

In the case of `COc1ccc(CC(=O)Nc2ccc3nc(C)sc3c2)cc1OC`, the AC50 under setting [1] was 0.461 µM [rising, full curve, poor fit].

Turning to `O=C(Nc1cccc(F)c1)c1ccc(-c2ccccc2Cl)o1`, the half-maximal activity concentration (AC50) under setting [1] was 16.4 µM [falling, partial curve, poor fit].

For the compound `CCOC(=O)C1=CN(Cc2ccco2)S(=O)(=O)N(C)C1c1ccc(C(F)(F)F)cc1` (stereo not given), the AC50 under setting [1] is 18.4 µM [falling, partial curve, poor fit].

With `CCCCSC(=S)NC1CCS(=O)(=O)C1` (stereo not given), the AC50 under setting [1] was 20.6 µM [falling, partial curve].

As to `O=C1c2ccccc2NC(c2ccccc2Cl)N1N=C1CCCCCC1` (stereo not given), the AC50 under setting [1] was 0.0651 µM [falling, full curve, poor fit].

On to `COc1ccc(-c2ccc(/C=C3/C(=N)N4C=CSC4=NC3=O)o2)c([N+](=O)[O-])c1`, for which, under setting [1], the AC50 was 6.51 µM [falling, single point].

On to `CCOC(=O)c1ccc2[nH]c3ccccc3c2c1`, for which the AC50 under setting [1] is 1.12 µM [rising, partial curve].

For the compound `CC12CCC(C(=O)Nc3ccccc3)(C/C1=N\O)C2(C)C` (stereo not given), under setting [1], the AC50 was 4.61 µM [rising, full curve, poor fit].

On to `O=C1CN=C(Nc2ccc(Cl)cc2)N1c1ccccc1`, for which the AC50 under setting [1] was 35.5 µM [falling, single point].

Turning to `COc1ccc2cc(C[C@@H]3CC[C@@H](CNC(N)=O)O3)ccc2c1`, the AC50 under setting [1] was 14.6 µM [rising, partial curve].

As to `Cc1ccc(-c2csc3nc(CN(C)Cc4ccccc4)[nH]c(=O)c23)cc1`, the AC50 under setting [1] is 3.55 µM [rising, single point].

On to `N=c1c2c(n(Cc3ccc(F)cc3)c3c1CCC3)CCC2`, for which, under setting [1], the concentration at half-maximal activity (AC50) is 35.5 µM [falling, single point].

For `O=C(Nc1nccs1)c1cc(S(=O)(=O)N2CCOCC2)c(Cl)cc1Cl`, under setting [1], the AC50 is 2.24 µM [falling, partial curve, poor fit].

Turning to `COc1cc(NC(=S)NC(=O)c2ccccc2F)ccc1NC(=O)c1ccco1`, the concentration at half-maximal activity (AC50) is, setting by setting: under setting [1], 13 µM [rising, partial curve]; under setting [2], 23.1 µM [falling, partial curve, poor fit].

Take `CCN1C(=O)/C(=C/c2cnn(C)c2C)SC1=S`: under setting [1], the AC50 is 3.66 µM [rising, partial curve, poor fit].

For `Cc1cc(C(C)(C)C)cc(C)c1CC1=NCCN1`, the concentration at half-maximal activity (AC50) under setting [1] was 7.08 µM [falling, partial curve, poor fit].

For `C=CCS/C(N)=N\N=C\c1c(O)ccc2ccccc12`, the AC50 under setting [1] is 35.5 µM [falling, single point].

`N/C(=N\OC(=O)/C=C/c1ccccc1Cl)c1ccccn1`: under setting [1], the AC50 is 14.1 µM [falling, partial curve, poor fit].

For the compound `Cc1cc(C)c(C(=O)N2CCCC(CNC(=O)C3(c4ccc(Cl)cc4)CC3)C2)c(=O)[nH]1` (stereo not given), the AC50 under setting [1] was 3.98 µM [falling, partial curve, poor fit].

Take `CCOC(=O)Cn1nnnc1CN(Cc1cccs1)Cc1cc2cc(C)cc(C)c2[nH]c1=O`: under setting [1], the half-maximal activity concentration (AC50) is 18.4 µM [falling, partial curve].

As to `CCCCN(C(=O)CSc1nnc(-c2ccccc2)n1C)c1c(N)n(Cc2ccccc2)c(=O)[nH]c1=O`, the half-maximal activity concentration (AC50) under setting [1] was 0.82 µM [rising, full curve, poor fit].

In the case of `COc1ccccc1N(CC(=O)NC1CCCCC1)S(=O)(=O)c1ccccc1`, the AC50 under setting [1] is 35.5 µM [falling, single point].

As for `CC(=O)OC(/C(O)=C(\C#N)c1nc2ccccc2[nH]1)c1ccccc1` (stereo not given), under setting [1], the half-maximal activity concentration (AC50) was 25.1 µM [rising, partial curve, poor fit].

Consider `O=C(OCc1ccccc1Cl)c1ccc(-n2cnnc2)cc1`, for which, under setting [1], the AC50 is 6.31 µM [rising, partial curve, poor fit].

As to `Cc1ccc(C(=O)NCCSc2ccc(Cl)cc2)cc1S(=O)(=O)Nc1ccccc1`, the AC50 reads like this: under setting [1], 12.6 µM [falling, partial curve]; under setting [2], 35.5 µM [rising, partial curve, poor fit].

Turning to `S=C(NCC1CCCO1)Nc1ccc(Cl)c(Cl)c1` (stereo not given), the concentration at half-maximal activity (AC50) under setting [1] was 6.31 µM [falling, partial curve].

For the compound `COC(=O)CN1C(=O)N/C(=C/c2ccccc2OC)C1=O`, the AC50 under setting [1] was 0.794 µM [falling, full curve].

On to `CCOc1ccccc1OCCOCCN1CC(C)OC(C)C1` (stereo not given), for which the AC50 under setting [1] is 3.26 µM [rising, partial curve, poor fit].

As to `CC(C)(C)c1ccc(-n2nc(C#N)c(Cl)cc2=O)cc1`, the AC50 under setting [1] is 11.2 µM [falling, partial curve, poor fit] and the AC50 under setting [2] is 12.6 µM [rising, partial curve, poor fit].

In the case of `COc1ccc(NC(=O)C(=O)NCCN2CCN(C(=O)c3cccc(Br)c3)CC2)cc1`, the half-maximal activity concentration (AC50) under setting [1] is 2.51 µM [rising, full curve, poor fit].

For `CCOC(=O)Cn1c(=O)c2c(nc(Br)n2Cc2ccc(Cl)cc2)n(C)c1=O`, the AC50 under setting [1] was 3.66 µM [rising, partial curve, poor fit].

On to `COc1cccc(NC(=O)c2oc3ccc(S(=O)(=O)N4CCC5(CC4)OCCO5)cc3c2C)c1`, for which the AC50 under setting [1] was 20 µM [falling, partial curve, poor fit].

Turning to `COc1cccc(-n2c(SCc3cc(=O)oc4cc(O)c(O)cc34)nc3ccccc3c2=O)c1`, the AC50 under setting [1] is 29.1 µM [falling, single point].

Take `O=C1C(=O)N(c2ccc(O)cc2)C(c2ccccc2[N+](=O)[O-])/C1=C(\O)c1ccccc1` (stereo not given): the AC50 under setting [1] was 12.6 µM [falling, single point].

On to `Cc1ccc(CCNC(=O)C2CCCN(S(=O)(=O)c3cccc4nsnc34)C2)cc1` (stereo not given), for which the AC50 under setting [1] is 25.9 µM [falling, partial curve].

With `CC1CCN(S(=O)(=O)c2ccc3c(ccn3CC(=O)O)c2)CC1`, the AC50 under setting [1] was 14.1 µM [rising, partial curve, poor fit].

As for `CCn1cnc2cc(NC(=O)c3ccc(C)cc3)ccc21`, under setting [1], the AC50 is 35.5 µM [falling, single point].

Regarding `C#CCOCCOCCOCCNc1nc(N2CCN(C(=O)[C@H](CCCCN)n3cc(CCC(=O)O)nn3)CC2)nc(N2CCN(C(=O)[C@H](CCCCN)n3cc(CC(C)O)nn3)CC2)n1` (stereo not given in full), the AC50 under setting [1] is 29.1 µM [rising, single point].

On to `C#CCN1C(=O)S/C(=C\c2cc3c(cc2OC)OCO3)C1=O`, for which the AC50 under setting [1] is 8.91 µM [rising, partial curve, poor fit].

As for `COc1ccc(CC(=O)OCC(=O)Nc2ccc(Cl)cn2)cc1`, the AC50 under setting [1] was 29.1 µM [falling, single point].

As for `COCCNC(=O)CSc1nc2nn(-c3ccccc3)c(=O)c-2c2n1CCCCC2`, under setting [1], the AC50 is 6.31 µM [falling, full curve, poor fit].

For `O=C1CCC(C(=O)Nc2ccccc2N2CCOCC2)=NN1`, the AC50 under setting [1] is 35.5 µM [rising, partial curve, poor fit].

Take `CCc1ccccc1NC(=O)C1CCCN1S(=O)(=O)c1ccc(-c2ccc(=O)[nH]n2)s1` (stereo not given): the concentration at half-maximal activity (AC50) under setting [1] is 0.355 µM [rising, partial curve, poor fit].

On to `O=C(COc1cccc2cccnc12)Nc1cccc(S(=O)(=O)N2CCCC2)c1`, for which the AC50 under setting [1] was 6.51 µM [falling, single point].

As to `O=C(NCCOc1ccccc1Cl)c1ncn[nH]1`, under setting [1], the AC50 was 7.08 µM [rising, full curve].

On to `Cc1cc(NCCCN2CCOCC2)n2nc(C)c(-c3ccc(F)cc3)c2n1`, for which the AC50 under setting [1] is 20 µM [falling, single point].

In the case of `Cc1cc(C)c(C#N)c(Sc2ccccc2N)n1`, the AC50 under setting [1] is 12.6 µM [rising, single point].

Turning to `CC(OC(=O)CCN1C(=O)C2CC=CCC2C1=O)C(=O)c1ccc(F)cc1` (stereo not given), under setting [1], the AC50 was 29.1 µM [rising, single point].

Values taken from PubChem BioAssay AID493014 (National Center for Advancing Translational Sciences (NCATS), 2011).
